Measurements from article PMC7864061.
Results are given in words; binding and its absence hold for the method and conditions named. In cells and extracts the contact can be indirect. Some binding calls cover weakened binding; strength is not graded here. Tags and fused reporters may be left off the sequences shown. Blank lines part the entries; values can stand above or below the binder they belong to.

By UniProt entry, the sequences of proteins in these tests, tags left out. Residues count along the entry.
UniProt P47871, residues 26-477: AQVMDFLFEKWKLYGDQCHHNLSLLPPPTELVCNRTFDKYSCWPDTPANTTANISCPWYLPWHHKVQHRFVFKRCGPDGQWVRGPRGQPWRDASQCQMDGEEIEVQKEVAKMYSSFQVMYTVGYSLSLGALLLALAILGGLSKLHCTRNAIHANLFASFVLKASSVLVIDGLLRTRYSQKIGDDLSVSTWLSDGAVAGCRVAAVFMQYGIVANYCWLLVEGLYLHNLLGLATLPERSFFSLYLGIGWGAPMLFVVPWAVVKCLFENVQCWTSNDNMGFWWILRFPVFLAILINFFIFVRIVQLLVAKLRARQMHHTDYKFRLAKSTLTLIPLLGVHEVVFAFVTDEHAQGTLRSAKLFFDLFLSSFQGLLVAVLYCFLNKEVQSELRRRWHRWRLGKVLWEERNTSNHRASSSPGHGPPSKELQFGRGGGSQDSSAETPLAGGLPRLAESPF

Target: glucagon receptor GCGR-MYC-FLAG (UniProt P47871)
Test: co-IP; GCGR-MYC-FLAG immunoprecipitated with anti-FLAG M2 affinity beads from lysates of stably transfected HEK-293 cells (serum-starved 1 h, unstimulated or 200 nM glucagon for the indicated times); lysis buffer 50 mM HEPES pH 7.5, 2 mM EDTA, 250 mM NaCl, 10% glycerol, 0.5% IGEPAL CA-630, 10 mM N-ethylmaleimide; overnight at 4 °C; eluates immunoblotted for the deubiquitinases

- binding: binds
B1: ubiquitin-specific protease 33 (USP33) (enzyme, UniProt Q8TEY7 1-942)
chain: MTGSNSHITILTLKVLPHFESLGKQEKIPNKMSAFRNHCPHLDSVGEITKEDLIQKSLGTCQDCKVQGPNLWACLENRCSYVGCGESQVDHSTIHSQETKHYLTVNLTTLRVWCYACSKEVFLDRKLGTQPSLPHVRQPHQIQENSVQDFKIPSNTTLKTPLVAVFDDLDIEADEEDELRARGLTGLKNIGNTCYMNAALQALSNCPPLTQFFLDCGGLARTDKKPAICKSYLKLMTELWHKSRPGSVVPTTLFQGIKTVNPTFRGYSQQDAQEFLRCLMDLLHEELKEQVMEVEEDPQTITTEETMEEDKSQSDVDFQSCESCSNSDRAENENGSRCFSEDNNETTMLIQDDENNSEMSKDWQKEKMCNKINKVNSEGEFDKDRDSISETVDLNNQETVKVQIHSRASEYITDVHSNDLSTPQILPSNEGVNPRLSASPPKSGNLWPGLAPPHKKAQSASPKRKKQHKKYRSVISDIFDGTIISSVQCLTCDRVSVTLETFQDLSLPIPGKEDLAKLHSSSHPTSIVKAGSCGEAYAPQGWIAFFMEYVKRFVVSCVPSWFWGPVVTLQDCLAAFFARDELKGDNMYSCEKCKKLRNGVKFCKVQNFPEILCIHLKRFRHELMFSTKISTHVSFPLEGLDLQPFLAKDSPAQIVTYDLLSVICHHGTASSGHYIAYCRNNLNNLWYEFDDQSVTEVSESTVQNAEAYVLFYRKSSEEAQKERRRISNLLNIMEPSLLQFYISRQWLNKFKTFAEPGPISNNDFLCIHGGVPPRKAGYIEDLVLMLPQNIWDNLYSRYGGGPAVNHLYICHTCQIEAEKIEKRRKTELEIFIRLNRAFQKEDSPATFYCISMQWFREWESFVKGKDGDPPGPIDNTKIAVTKCGNVMLRQGADSGQISEETWNFLQSIYGGGPEVILRPPVVHVDPDILQAEEKIEVETRSL

- binding: binds
B2: signal-transducing adaptor molecule-binding protein (STAMBP) (enzyme, UniProt O95630 1-424)
chain: MSDHGDVSLPPEDRVRALSQLGSAVEVNEDIPPRRYFRSGVEIIRMASIYSEEGNIEHAFILYNKYITLFIEKLPKHRDYKSAVIPEKKDTVKKLKEIAFPKAEELKAELLKRYTKEYTEYNEEKKKEAEELARNMAIQQELEKEKQRVAQQKQQQLEQEQFHAFEEMIRNQELEKERLKIVQEFGKVDPGLGGPLVPDLEKPSLDVFPTLTVSSIQPSDCHTTVRPAKPPVVDRSLKPGALSNSESIPTIDGLRHVVVPGRLCPQFLQLASANTARGVETCGILCGKLMRNEFTITHVLIPKQSAGSDYCNTENEEELFLIQDQQGLITLGWIHTHPTQTAFLSSVDLHTHCSYQMMLPESVAIVCSPKFQETGFFKLTDHGLEEISSCRQKGFHPHSKDPPLFCSCSHVTVVDRAVTITDLR
